According to patent publication US4202941A, “Glycerol oxidase and process for the production thereof and method for the quantitative determination of glycerol by glycerol oxidase” (Kyowa Hakko Kogyo, Co. Ltd., priority 1977, dated 1980):
At least one compound was matched to its structure with a doubt left.

Tests used:
[1] = test system: Enzyme of the genus Aspergillus (glycerol oxidase); assay: Inhibition of enzyme activity by 1 mM inhibitors (4-AA method); type: biochemical, Aspergillus japonicus KY-45; set-up: key: % of activity without inhibitor (no inhibitor = 100); conditions: 1 mM inhibitor
Method: (§1) The enzyme activity is expressed by "unit." A "unit" of the enzyme activity is defined as that amount of enzyme which will decompose 1μ mole of glycerol at 37° C. in 1 minute in the presence of oxygen. The determination of the enzyme activity is carried out as follows: glycerol is reacted with glycerol oxidase with stirring to form hydrogen peroxide, and 4-aminoantipyrine and phenol are reacted with the resulting hydrogen peroxide in the presence of peroxidase to derive quinoneimine pigment. The optical density at 500 nm of the resulting quinoneimine pigment is measured to determine the amount of generated hydrogen peroxide, whereby the enzyme activity is determined (which will be hereinafter referred to as "4-AA method").
(§2) Enzymes activities obtained by adding 1 mM of various inhibitors are shown in Table 1, the activity of the enzyme with no addition of the inhibitor being defined as 100. The activities are measured according to 4-AA method deriving a pigment of 4-aminoantipyrine system from the generated H2 O2. […]
(§3) Determination of the enzyme activity is carried out by reacting hydrogen peroxide generated by the enzyme with 4-aminoantipyrine and phenol in the presence of peroxidase to obtain quinoneimine pigment, and quantitatively determining the resulting quinoneimine pigment. […]

[2] = test system: Enzyme of the genus Neurospora (glycerol oxidase); assay: as above; type: biochemical, Neurospora crassa KY-462; set-up: key: % of activity without inhibitor (no inhibitor = 100); conditions: 1 mM inhibitor
Method: as §1, §2, §3

In the case of `CCN(CC)C(=S)S` [diethyldithiocarbamate], the “Enzyme activity on adding inhibitor (activity with no inhibitor defined as 100)” value [1] is reported as 35 and the “Enzyme activity on adding inhibitor (activity with no inhibitor defined as 100)” value [2] is reported as 20.
